# Data: patent US11026906B2 (priority 2016, dated 2021)
# Read-outs that look alike come from different tables or passages of the source. For at least one compound, name, drawing or mass did not settle the structure.
# Details: 10 subjects
# Excerpt: The study was approved by an Institutional Review Board. […] Each provided informed consent to participate in the study.
# (§1) On the day of dose administration, the subjects arrived at the clinic fasted. Their qualifications for enrollment were reviewed to ensure compliance. Immediately prior to administration of the test article, an indwelling venous catheter was placed and a blood sample was withdrawn into a trace metal-free tube (the t=0 sample). […] After drinking the test article solution, fasting continued for 2 hours. During the day, however, subjects were provided usual and customary meals. Potential adverse events were monitored.
# Each blood sample was stored appropriately until all samples had been collected for the day. Then the blood samples were centrifuged to separate the serum, and each serum sample was transferred into two trace metal-free vials. The vials were shipped to an independent analytical laboratory for serum strontium analyses.
# as §1, with “One week later, on the day” for “On the day”, “administration, the same subjects arrived” for “administration, the subjects arrived”
smiles,measurement,setting,value
C[C@H](O)C(=O)[O-].C[C@H](O)C(=O)[O-].[Sr+2] [strontium L-lactate],"Time to Cmax, Mean",oral dose 170 mg strontium,3.0 h
same,"Time to Cmax, Mean",oral dose 340 mg strontium,3.2 h
same,"Time to Cmax, Mean",oral dose 680 mg strontium,2.8 h
